Laboratory results: PubChem BioAssay AID504834 (National Center for Advancing Translational Sciences (NCATS), 2011)
Among all 320,000 compounds or so, about 22,000 (6.9%) were called active. The inconclusive results got no clear call from the source; some entries with a clear call stand among them for comparison. The call rests on the fitted dose curve; in most records, active means well fitted inhibition curve with a large enough effect; inconclusive means small, poorly fitted or top-dose-only effect, or another doubt; inactive means no such curve, though single readings can be large or run the other way. Potencies of inconclusive entries are doubtful fits and often do not repeat.

test: Primary qHTS for delayed death inhibitors of the malarial parasite plastid, 96 hour incubation; details: P. falciparum luciferase reporter growth; series mostly up to 28.7 µM; activity change, negative = inhibition: at the top concentration
Procedure, shortened: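 Parasite growth measured via integrated firefly luciferase reporter in P. falciparum. Infected erythrocytes at 2% hematocrit, 0.05% parasitemia final were treated 96 hours at 37 C under 5% CO2, and luminescence was read.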
On the % scale 0 is the no-effect control and ±100 the full control effect; potency means the concentration at half of the fitted maximal effect.

Compound | Potency | activity change, negative = inhibition
O=C(CCN1CCc2ccccc2C1)c1ccc2c(c1)OCCO2 | inconclusive: 6.57 µM [inhibitor, partial curve, poor fit] | 
O=C(O)c1ccc(NC(CSCc2ccccc2F)C(=O)O)c([N+](=O)[O-])c1 (stereo unspecified) |  | inactive: 11.5%
Cc1cccc([C@@H](NC(=O)OC(C)(C)C)C(=O)OC(C)(C)C)c1 | inconclusive: 5.22 µM [inhibitor, single point] | 
COc1ccc(C(=O)NCCn2ccc3ccccc32)cc1 |  | inactive: -0.489%
CC(/C=C/c1ccccc1)=N\NC(N)=S | inconclusive: 18.5 µM [inhibitor, single point] | 
COc1ccc(-c2cc3nc4c(c(N5CCC6(CC5)OCCO6)n3n2)CCC4)cc1 |  | inactive: 256%
CCN(CC)c1cccc(OCC(=O)N2c3ccccc3CC2C)c1 (stereo unspecified) | inconclusive: 18.5 µM [inhibitor, single point] | 
Cc1ccc(Nc2nnc(SCc3ccccc3)s2)cc1 | inconclusive: 6.57 µM [inhibitor, partial curve] | 
CN(C)CCNC(=O)c1csc(Nc2cccc3ccccc23)n1 | inconclusive: 14.7 µM [inhibitor, single point] | 
CCOC(=O)c1cc(S(=O)(=O)NCC2CCN(Cc3cccc(C)c3)CC2)cn1C |  | inactive: 80.2%
Cn1cnnc1-c1cccc(NC(=O)c2cc(F)c(F)cc2Cl)c1 | inconclusive: 0.928 µM [inhibitor, full curve] | 
COc1ccccc1NC(=O)N(Cc1cccs1)Cc1cc2cc3c(cc2[nH]c1=O)OCO3 | inconclusive: 6.57 µM [inhibitor, partial curve] | 
COc1ccccc1NC(=O)c1ccc2nsnc2c1 |  | inactive: -1.03%
Cn1c(N)c(C(=O)CSc2nnnn2-c2ccccc2)c(=O)n(C)c1=O |  | inactive: 3.05%
O=C(O)CSc1ncnc2sc3c(c12)CCCC3 |  | inactive: -10.5%
COc1ccc(-c2csc(Nc3ccccc3)[n+]2Cc2ccccc2)cc1 | active: 13.1 µM | 
Nc1cc(Nc2ccccc2)ccn1 | inconclusive: 13.1 µM [inhibitor, partial curve, poor fit] | 
CCOC(=O)c1cccc(Nc2nc(C)cc(C)n2)c1 |  | inactive: -14.2%
O=S(=O)(c1ccccc1)N1C2CCC1CC(O)(c1cccnc1)C2 (stereo unspecified) | active: 2.33 µM | 
CN=C(C)C1=C(O)C(C(=O)OC)C(C)(C)CC1=O (stereo unspecified) | inconclusive: 18.5 µM [inhibitor, single point] | 
S=c1[nH]nc(-c2ccc3ccccc3n2)n1-c1ccccc1Cl |  | inactive: 11.7%
COc1ccc(NC(=O)CCNS(=O)(=O)c2ccc3c(c2)CC(C)N3C(=O)C2CC2)cc1 (stereo unspecified) | inconclusive: 2.08 µM [inhibitor, partial curve, poor fit] | 
COC(=O)c1ccc(/C=C2/SC(=S)N(CCCC(=O)Nc3ccc(O)cc3)C2=O)cc1 | inconclusive: 11.7 µM [inhibitor, single point] | 

Part of the list above, as comma-separated lines.
Compound,Potency,"activity change, negative = inhibition"
Cc1ccc(Nc2nnc(SCc3ccccc3)s2)cc1,"inconclusive: 6.57 µM [inhibitor, partial curve]",
O=S(=O)(c1ccccc1)N1C2CCC1CC(O)(c1cccnc1)C2 (stereo unspecified),active: 2.33 µM,
S=c1[nH]nc(-c2ccc3ccccc3n2)n1-c1ccccc1Cl,,inactive: 11.7%

(listing goes on)

Compound | Potency | activity change, negative = inhibition
CN(CC(=O)Nc1ccc(OC(F)(F)F)cc1)S(=O)(=O)c1cnc[nH]1 | inconclusive: 10.4 µM [inhibitor, single point] | 
COc1ccc(/C=C/c2nc(-c3ccccc3O)n[nH]2)cc1OC | inconclusive: 13.1 µM [inhibitor, partial curve, poor fit] | 
CCN1CCN(C(=O)C(C)N(c2ccc(C)cc2)S(C)(=O)=O)CC1 (stereo unspecified) | inconclusive: 9.28 µM [inhibitor, partial curve] | 
Fc1ccc(COc2ccc(Br)cc2CNCc2ccncc2)cc1 | inconclusive: 20.8 µM [inhibitor, partial curve, poor fit] | 
Cc1ccc(Nc2nc(COC(=O)COc3ccc(C=O)cc3)cs2)cc1 |  | inactive: 103%
CCOc1cc(C(=O)N/N=C/C2CC=CCC2)cc(OCC)c1OCC (stereo unspecified) | inconclusive: 10.4 µM [inhibitor, partial curve, poor fit] | 
O=C(Nc1cccc(Cl)c1)c1cc(N=Nc2ccc([N+](=O)[O-])cc2Cl)ccc1O | inconclusive: 3.7 µM [inhibitor, partial curve, poor fit] | 
Cc1ccc(C2(C)NC(=O)N(CC(=O)NCc3cccs3)C2=O)cc1 (stereo unspecified) |  | inactive: 3.32%
COc1ccccc1-c1nc(-c2cccc(C)c2)no1 | inconclusive: 10.4 µM [inhibitor, partial curve] | 
COc1ccccc1NC(=O)N(CCN(C)C)Cc1cc2cc(C)ccc2[nH]c1=O |  | inactive: -18.4%
CC(=O)c1ccc(NC2=C(N3CCOCC3)C(=O)c3ccccc3C2=O)cc1 | active: 0.522 µM | 
C=CCn1c(-c2ccc(N)cc2)nc2ccccc21 |  | inactive: 116%
O=C(c1ccc2ccccc2c1)C1CCCN(C(=O)CCn2cnnn2)C1 (stereo unspecified) | inconclusive: 13.1 µM [inhibitor, single point] | 
CCNC(=S)N1CCC(NC(=O)c2ccco2)CC1 | inconclusive: 11.7 µM [inhibitor, single point] | 
COc1ccccc1OCCCc1c(C)n[nH]c1C | inconclusive: 18.5 µM [inhibitor, single point] | 
Cc1cnc(C(=O)NNC(=O)c2ccc(Br)cc2)cn1 | inconclusive: 2.62 µM [inhibitor, full curve] | 
Cn1c(N)c(S(=O)(=O)c2ccc(Br)cc2)c2nc3ccccc3nc21 | inconclusive: 2.94 µM [inhibitor, full curve, poor fit] | 
CCOc1ccc(S(=O)(=O)NC(C)C(=O)NC2CCCC2)cc1 (stereo unspecified) | inconclusive: 18.5 µM [inhibitor, single point] | 
Cc1ccc(OC(=O)C2CSC3(C)CCC(=O)N23)c(Br)c1 (stereo unspecified) | active: 5.86 µM | 
CN1C(=O)c2ccccc2C(C(=O)O)C1c1cccc(F)c1 (stereo unspecified) | inconclusive: 13.1 µM [inhibitor, partial curve] | 
C=CCn1c(-c2cc(OC)cc(OC)c2)n[nH]c1=S | inconclusive: 4.65 µM [inhibitor, partial curve, poor fit] | 
Cc1cccc(OCC(=O)N(Cc2ccco2)c2c(N)n(Cc3ccccc3)c(=O)[nH]c2=O)c1 | inconclusive: 18.5 µM [inhibitor, single point] | 
CC(=O)Nc1ccc(C(=O)Nc2ccc(S(=O)(=O)N3CCOCC3)cc2)cc1 | active: 8.28 µM | 
